Data reported in the supplement of paper PMC10849652.
The list shows a part of the results.

Chains of the proteins cited; added tags and fusions are not shown. Lines headed by an entry give the natural chain unless they say otherwise; changes in a name come on top.
UniProt O95969: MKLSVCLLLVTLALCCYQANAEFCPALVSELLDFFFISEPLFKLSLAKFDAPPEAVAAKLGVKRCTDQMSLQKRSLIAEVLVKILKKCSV
UniProt Q8N9R8: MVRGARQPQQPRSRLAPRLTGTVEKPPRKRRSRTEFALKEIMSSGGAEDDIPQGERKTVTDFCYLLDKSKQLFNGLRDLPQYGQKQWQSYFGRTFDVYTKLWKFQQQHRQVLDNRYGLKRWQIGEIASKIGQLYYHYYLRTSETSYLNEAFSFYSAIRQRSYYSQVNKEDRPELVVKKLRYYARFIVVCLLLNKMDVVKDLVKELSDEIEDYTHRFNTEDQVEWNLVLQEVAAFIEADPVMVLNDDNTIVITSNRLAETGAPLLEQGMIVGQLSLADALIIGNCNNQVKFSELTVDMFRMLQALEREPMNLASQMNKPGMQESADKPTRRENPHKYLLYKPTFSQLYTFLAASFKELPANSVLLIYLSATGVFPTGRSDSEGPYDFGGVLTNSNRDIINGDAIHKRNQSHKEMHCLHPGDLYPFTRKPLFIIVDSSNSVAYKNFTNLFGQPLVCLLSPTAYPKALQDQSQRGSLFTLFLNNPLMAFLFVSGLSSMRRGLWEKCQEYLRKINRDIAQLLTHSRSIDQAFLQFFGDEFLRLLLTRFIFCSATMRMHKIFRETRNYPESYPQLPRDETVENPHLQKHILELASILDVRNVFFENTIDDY
UniProt Q9Y467: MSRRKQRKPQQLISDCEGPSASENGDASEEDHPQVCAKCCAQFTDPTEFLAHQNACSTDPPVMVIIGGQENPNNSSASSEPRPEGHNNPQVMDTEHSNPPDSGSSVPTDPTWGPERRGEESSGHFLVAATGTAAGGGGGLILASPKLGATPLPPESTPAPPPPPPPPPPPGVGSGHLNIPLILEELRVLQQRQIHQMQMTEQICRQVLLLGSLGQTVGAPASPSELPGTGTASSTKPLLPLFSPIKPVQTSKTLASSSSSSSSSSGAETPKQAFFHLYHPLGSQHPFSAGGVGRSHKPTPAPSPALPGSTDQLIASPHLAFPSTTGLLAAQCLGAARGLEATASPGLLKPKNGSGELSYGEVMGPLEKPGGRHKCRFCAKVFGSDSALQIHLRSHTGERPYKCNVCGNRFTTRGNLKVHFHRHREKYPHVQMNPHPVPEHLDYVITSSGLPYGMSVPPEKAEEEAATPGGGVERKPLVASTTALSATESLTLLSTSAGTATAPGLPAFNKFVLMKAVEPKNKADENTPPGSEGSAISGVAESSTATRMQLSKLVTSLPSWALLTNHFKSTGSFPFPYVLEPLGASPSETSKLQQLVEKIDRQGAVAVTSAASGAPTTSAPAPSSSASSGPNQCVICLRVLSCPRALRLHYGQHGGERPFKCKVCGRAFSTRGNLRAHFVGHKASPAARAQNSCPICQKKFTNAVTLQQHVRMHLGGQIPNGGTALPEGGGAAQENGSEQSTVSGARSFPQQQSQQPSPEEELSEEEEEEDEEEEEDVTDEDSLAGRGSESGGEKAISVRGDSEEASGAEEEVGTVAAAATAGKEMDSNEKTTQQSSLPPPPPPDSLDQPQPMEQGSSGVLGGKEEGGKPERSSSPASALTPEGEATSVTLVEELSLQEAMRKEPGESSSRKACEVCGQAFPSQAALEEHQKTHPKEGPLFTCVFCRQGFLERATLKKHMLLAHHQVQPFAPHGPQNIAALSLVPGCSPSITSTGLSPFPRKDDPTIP
UniProt Q68CR1: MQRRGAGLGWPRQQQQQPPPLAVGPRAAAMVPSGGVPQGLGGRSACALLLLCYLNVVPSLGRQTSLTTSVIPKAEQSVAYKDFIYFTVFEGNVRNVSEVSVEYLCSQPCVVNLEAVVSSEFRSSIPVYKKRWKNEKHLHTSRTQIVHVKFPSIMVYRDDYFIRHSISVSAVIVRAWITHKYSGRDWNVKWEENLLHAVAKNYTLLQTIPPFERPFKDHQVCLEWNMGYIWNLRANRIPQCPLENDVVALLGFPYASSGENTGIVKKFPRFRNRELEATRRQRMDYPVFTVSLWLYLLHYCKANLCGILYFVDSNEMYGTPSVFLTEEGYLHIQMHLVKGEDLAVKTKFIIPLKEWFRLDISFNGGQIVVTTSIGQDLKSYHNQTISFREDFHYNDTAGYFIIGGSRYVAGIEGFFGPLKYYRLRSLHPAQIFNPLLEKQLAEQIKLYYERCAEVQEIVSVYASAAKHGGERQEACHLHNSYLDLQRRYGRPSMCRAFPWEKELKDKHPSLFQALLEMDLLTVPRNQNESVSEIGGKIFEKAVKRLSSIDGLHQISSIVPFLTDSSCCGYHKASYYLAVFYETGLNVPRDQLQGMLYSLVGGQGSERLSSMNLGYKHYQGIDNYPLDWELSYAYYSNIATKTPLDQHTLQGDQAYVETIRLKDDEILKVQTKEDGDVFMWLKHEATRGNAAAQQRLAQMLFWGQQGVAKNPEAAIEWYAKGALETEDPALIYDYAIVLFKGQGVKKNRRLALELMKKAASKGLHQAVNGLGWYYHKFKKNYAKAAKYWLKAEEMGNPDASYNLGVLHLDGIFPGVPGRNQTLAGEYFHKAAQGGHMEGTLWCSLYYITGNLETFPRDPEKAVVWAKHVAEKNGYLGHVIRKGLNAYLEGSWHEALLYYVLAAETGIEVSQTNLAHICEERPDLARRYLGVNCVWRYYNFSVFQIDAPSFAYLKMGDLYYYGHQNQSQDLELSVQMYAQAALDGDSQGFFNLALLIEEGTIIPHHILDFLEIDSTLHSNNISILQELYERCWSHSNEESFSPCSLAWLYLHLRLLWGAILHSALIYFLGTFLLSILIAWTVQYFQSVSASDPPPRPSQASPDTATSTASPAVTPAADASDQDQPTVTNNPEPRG
UniProt Q9Y2G9: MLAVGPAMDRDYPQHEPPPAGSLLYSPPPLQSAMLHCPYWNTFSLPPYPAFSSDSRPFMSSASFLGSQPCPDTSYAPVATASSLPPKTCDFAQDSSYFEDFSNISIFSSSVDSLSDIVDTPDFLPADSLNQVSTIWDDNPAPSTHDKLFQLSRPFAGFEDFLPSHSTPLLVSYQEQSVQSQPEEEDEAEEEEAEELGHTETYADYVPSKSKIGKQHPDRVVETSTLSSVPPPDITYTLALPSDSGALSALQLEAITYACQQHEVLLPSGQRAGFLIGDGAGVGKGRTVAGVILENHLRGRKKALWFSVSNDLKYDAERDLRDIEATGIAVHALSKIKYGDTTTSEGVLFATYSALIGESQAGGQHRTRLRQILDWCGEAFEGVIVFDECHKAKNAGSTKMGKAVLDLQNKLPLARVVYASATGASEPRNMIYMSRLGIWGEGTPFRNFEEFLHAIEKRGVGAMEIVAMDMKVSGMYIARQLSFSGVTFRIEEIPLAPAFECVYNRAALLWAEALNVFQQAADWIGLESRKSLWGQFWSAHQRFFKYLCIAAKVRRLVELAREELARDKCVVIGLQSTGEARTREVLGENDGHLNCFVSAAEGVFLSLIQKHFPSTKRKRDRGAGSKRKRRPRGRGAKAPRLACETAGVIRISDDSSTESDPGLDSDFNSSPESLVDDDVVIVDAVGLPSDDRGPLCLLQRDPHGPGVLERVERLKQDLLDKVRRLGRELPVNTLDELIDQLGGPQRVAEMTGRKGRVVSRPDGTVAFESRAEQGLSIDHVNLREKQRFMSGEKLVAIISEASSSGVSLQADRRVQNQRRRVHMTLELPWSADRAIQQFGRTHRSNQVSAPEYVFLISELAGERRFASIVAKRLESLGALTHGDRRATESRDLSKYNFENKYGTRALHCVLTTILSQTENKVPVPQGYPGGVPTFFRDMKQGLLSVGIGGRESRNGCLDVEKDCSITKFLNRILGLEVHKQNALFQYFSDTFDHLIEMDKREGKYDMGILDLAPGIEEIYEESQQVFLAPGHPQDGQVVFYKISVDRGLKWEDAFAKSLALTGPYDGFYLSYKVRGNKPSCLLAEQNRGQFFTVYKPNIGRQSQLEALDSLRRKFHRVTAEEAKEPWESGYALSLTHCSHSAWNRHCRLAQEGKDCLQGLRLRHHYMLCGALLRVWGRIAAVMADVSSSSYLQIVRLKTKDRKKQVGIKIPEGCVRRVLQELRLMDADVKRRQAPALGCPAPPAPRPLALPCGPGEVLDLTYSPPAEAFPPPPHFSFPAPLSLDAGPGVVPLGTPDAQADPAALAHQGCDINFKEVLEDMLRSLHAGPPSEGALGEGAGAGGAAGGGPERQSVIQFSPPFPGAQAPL
UniProt Q96T21: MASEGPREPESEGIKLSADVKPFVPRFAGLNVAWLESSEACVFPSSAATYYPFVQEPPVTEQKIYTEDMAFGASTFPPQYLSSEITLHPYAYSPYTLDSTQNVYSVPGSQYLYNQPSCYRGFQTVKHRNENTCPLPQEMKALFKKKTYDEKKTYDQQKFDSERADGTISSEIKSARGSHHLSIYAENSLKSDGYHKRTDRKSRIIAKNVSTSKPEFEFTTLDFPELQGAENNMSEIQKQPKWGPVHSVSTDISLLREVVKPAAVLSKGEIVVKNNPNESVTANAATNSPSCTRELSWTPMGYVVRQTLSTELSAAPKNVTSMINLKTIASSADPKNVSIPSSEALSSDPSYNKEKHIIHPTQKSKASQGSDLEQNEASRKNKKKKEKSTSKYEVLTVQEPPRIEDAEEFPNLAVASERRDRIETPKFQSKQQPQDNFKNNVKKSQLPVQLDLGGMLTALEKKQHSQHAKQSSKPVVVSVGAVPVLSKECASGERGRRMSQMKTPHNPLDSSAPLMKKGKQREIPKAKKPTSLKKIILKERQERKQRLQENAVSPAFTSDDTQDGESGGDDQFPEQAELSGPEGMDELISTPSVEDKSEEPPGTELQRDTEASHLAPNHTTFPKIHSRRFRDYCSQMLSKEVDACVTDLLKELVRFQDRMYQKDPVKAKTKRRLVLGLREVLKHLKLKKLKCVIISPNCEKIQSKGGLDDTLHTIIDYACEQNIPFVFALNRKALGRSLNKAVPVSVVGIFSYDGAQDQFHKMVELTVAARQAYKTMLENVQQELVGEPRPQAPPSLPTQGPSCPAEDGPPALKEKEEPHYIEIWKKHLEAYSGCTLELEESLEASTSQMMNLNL
UniProt Q9UPU9: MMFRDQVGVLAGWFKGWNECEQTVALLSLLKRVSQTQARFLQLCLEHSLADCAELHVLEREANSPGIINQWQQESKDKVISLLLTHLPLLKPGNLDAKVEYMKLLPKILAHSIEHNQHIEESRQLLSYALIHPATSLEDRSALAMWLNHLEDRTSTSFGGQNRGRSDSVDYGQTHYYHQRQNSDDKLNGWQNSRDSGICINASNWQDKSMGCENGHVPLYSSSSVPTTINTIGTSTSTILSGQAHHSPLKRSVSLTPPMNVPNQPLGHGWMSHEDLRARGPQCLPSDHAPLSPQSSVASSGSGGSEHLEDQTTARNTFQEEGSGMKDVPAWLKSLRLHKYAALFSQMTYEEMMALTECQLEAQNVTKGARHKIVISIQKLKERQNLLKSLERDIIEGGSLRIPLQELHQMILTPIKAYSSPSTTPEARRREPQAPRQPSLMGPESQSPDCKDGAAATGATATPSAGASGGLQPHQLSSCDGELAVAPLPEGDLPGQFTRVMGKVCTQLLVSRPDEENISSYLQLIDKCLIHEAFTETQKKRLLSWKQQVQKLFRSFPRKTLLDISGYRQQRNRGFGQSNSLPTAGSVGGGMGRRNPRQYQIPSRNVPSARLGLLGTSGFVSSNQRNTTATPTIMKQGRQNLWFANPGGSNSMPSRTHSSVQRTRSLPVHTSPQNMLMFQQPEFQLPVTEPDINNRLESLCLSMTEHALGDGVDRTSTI
UniProt Q9BY50: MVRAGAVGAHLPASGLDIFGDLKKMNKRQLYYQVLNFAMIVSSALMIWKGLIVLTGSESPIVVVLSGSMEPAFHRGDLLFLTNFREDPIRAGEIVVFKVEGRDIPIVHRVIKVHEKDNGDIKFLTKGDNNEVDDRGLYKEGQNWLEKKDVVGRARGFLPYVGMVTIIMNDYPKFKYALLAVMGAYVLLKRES
UniProt Q9NTJ5: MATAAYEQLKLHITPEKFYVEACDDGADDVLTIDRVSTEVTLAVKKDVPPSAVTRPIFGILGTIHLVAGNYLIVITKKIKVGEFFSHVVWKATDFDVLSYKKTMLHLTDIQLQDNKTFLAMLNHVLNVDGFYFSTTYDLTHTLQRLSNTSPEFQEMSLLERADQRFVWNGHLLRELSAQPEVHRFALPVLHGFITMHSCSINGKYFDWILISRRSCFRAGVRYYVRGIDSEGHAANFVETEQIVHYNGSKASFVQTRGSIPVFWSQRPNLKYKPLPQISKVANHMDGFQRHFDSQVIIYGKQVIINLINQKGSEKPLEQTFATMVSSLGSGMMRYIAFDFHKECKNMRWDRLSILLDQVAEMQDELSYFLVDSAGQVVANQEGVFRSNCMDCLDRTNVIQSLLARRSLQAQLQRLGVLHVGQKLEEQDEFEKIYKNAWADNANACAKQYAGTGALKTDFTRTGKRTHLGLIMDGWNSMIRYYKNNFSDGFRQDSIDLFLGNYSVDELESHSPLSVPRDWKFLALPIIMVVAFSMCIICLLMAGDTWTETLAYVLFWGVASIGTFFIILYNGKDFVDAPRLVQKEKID

Key:
Test in all cases: log2 fold change, soluble protein after heating vs DMSO (PISA); higher = thermal stabilisation; K562 lysate, 10 uM; active = over 0.2 and 3.5 SD of the protein, either way, in both replicates (recomputed)
[1] = compound: CCCS(=O)(=O)Nc1ccc(F)c(C(=O)c2c[nH]c3ncc(-c4ccc(Cl)cc4)cc23)c1F [vemurafenib]
Summary of the method: (§1)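 The values are log-two fold changes in thermal stability compared with solvent controls and come from duplicates. They were obtained by TMTpro 16plex LC-MS/MS, with channel sums equalised, on the supernatant after 21,000xg for 90 min. That supernatant came from crude K562 extract at 1 mg/mL protein treated with 10 μM compound for 30 min, heated for 3 min across 48°C-58°C, pooled and brought to 0.5% NP-40 at 4°C.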

[2] = compound: CCCS(=O)(=O)Nc1ccc(F)c(C(=O)c2c[nH]c3ncc(Cl)cc23)c1F
Summary of the method: as §1

[3] = compound: CC[C@@H]1C(=O)N(C)c2cnc(Nc3ccc(C(=O)NC4CCN(C)CC4)cc3OC)nc2N1C1CCCC1
Summary of the method: as §1

[4] = compound: CC[C@@H]1C(=O)N(C)c2cnc(Nc3ccc(C(=O)N[C@H]4CC[C@H](N5CCN(CC6CC6)CC5)CC4)cc3OC)nc2N1C(C)C [volasertib]
Summary of the method: as §1

[5] = compound: CCn1c(C(=O)N(C2CC2)C2CC2)cc2c3c(ncn3C)c(Nc3cc(C)n(C)n3)nc21
Summary of the method: as §1

[6] = compound: CCn1cc(-c2ccnc3[nH]c(-c4cccc(CN(C)C)c4)cc23)c(-c2ccc(NC(=O)N(C)C)cc2)n1
Summary of the method: as §1

[7] = compound: CN1CCC(CNc2ccc3ncc(-c4cccc(OC(F)(F)F)c4)n3n2)CC1
Summary of the method: as §1

[8] = compound: CN1CCN(CCOc2cc(OC3CCOCC3)c3c(Nc4c(Cl)ccc5c4OCO5)ncnc3c2)CC1 [saracatinib]
Summary of the method: as §1

[9] = compound: CN1CCN(c2nc(C3=C(c4c[nH]c5ccccc45)C(=O)NC3=O)c3ccccc3n2)CC1 [sotrastaurin]
Summary of the method: as §1

[10] = compound: CN1CC[C@H](c2c(O)cc(O)c3c(=O)cc(-c4ccccc4Cl)oc23)[C@H](O)C1 [alvocidib]
Summary of the method: as §1

[11] = compound: CN1CCc2c(c3ccccc3n2Cc2ccc(C(=O)NO)cc2)C1 [Tubastatin A]
Summary of the method: as §1

[12] = compound: CNC(=O)C1=CC=CC=C1NC2=NC(=NC=C2Cl)NC3=C(C=C(C=C3)N4CCOCC4)OC
Summary of the method: as §1

[13] = compound: CNC(=O)c1ccc(Nc2ncc(C(F)(F)F)c(NCc3nccnc3N(C)S(C)(=O)=O)n2)cc1 [defactinib]
Summary of the method: as §1

[14] = compound: CNc1nc(-c2ccc3c(N)n[nH]c3c2)cc(N2C[C@@H](C(=O)NC3CCCCC3)CC[C@H]2C)n1
Summary of the method: as §1

[15] = compound: COC(=O)N[C@@H](C)CNc1nccc(-c2cn(C(C)C)nc2-c2cc(Cl)cc(NS(C)(=O)=O)c2F)n1 [encorafenib]
Summary of the method: as §1

[16] = compound: COC(=O)[C@H](CCSC)NC(=O)C1=C(C=C(C=C1)NC[C@H](CS)N)C2=CC=CC=C2
Summary of the method: as §1

[17] = compound: COc1cc(Nc2ncc3c(n2)-c2ccc(Cl)cc2C(c2c(F)cccc2OC)=NC3)ccc1C(=O)O [alisertib]
Summary of the method: as §1

[18] = compound: COc1cc2nc(-c3cc(F)ccc3O)nc(N[C@@H]3CNC[C@H]3C(C)(C)O)c2cc1OC
Summary of the method: as §1

[19] = compound: COc1cc2ncnc(Nc3ccc(F)c(Cl)c3)c2cc1OCCCN1CCOCC1 [gefitinib]
Summary of the method: as §1

[20] = compound: CCN(CCCOc1ccc2c(Nc3cc(CC(=O)Nc4cccc(F)c4)[nH]n3)ncnc2c1)CCOP(=O)(O)O [barasertib]
Summary of the method: as §1

Measured: log2 fold change

SDHB, A0A087WWT1
inactive: [1] -0.1 | [2] 0.001 | [3] 0 | [4] 0.073 | [5] -0.093 | [6] -0.123 | [7] 0.067 | [8] -0.059 | [9] -0.342 | [10] 0.239 | [11] 0.03 | [12] -0.296 | [13] 0.019 | [14] -0.051 | [15] -0.027 | [16] -0.094 | [17] -0.052 | [18] -0.06 | [19] -0.125

SDHAF2 (UniProt Q9NX18)
inactive: [1] 0.079 | [2] -0.013 | [20] 0.265 | [3] -0.026 | [4] 0.032 | [5] -0.017 | [8] 0.016 | [9] 0.033 | [11] 0.1 | [12] -0.009 | [13] -0.036 | [14] 0.099 | [15] 0.006 | [16] -0.025 | [17] -0.052 | [18] -0.015 | [19] 0.177

SENP5 (UniProt Q96HI0)
inactive: [1] 0.044 | [2] 0.062 | [20] 0.007 | [3] 0.05 | [4] 0.053 | [5] -0.055 | [8] -0.088 | [9] -0.008 | [11] 0.001 | [12] -0.036 | [13] 0.099 | [14] -0.008 | [15] -0.017 | [16] 0.217 | [17] -0.003 | [18] 0.14 | [19] 0.059

SCGB1D2 (UniProt O95969)
inactive: [2] -0.228 | [20] 0.192 | [3] 0.398 | [4] -0.378 | [5] 0.243 | [6] 0.141 | [7] -0.208 | [8] 0.251 | [9] -0.015 | [10] 0.219 | [11] 0.179 | [12] -0.356 | [14] -0.789 | [15] 0 | [16] 0.074 | [17] -0.052 | [18] 0.011 | [19] 0.051

SCAI isoform 2 (UniProt Q8N9R8)
inactive: [1] -0.107 | [20] 0.051 | [3] -0.074 | [5] 0.064 | [6] -0.03 | [7] -0.099 | [10] -0.164 | [11] -0.461 | [13] -0.024 | [15] -0.105 | [16] 0.039 | [17] -0.635 | [19] 0.045

Retrieved one by one from above, two records:
SENP5 (UniProt Q96HI0)
inactive: [1] 0.044 | [2] 0.062 | [20] 0.007 | [3] 0.05 | [4] 0.053 | [5] -0.055 | [8] -0.088 | [9] -0.008 | [11] 0.001 | [12] -0.036 | [13] 0.099 | [14] -0.008 | [15] -0.017 | [16] 0.217 | [17] -0.003 | [18] 0.14 | [19] 0.059

SCGB1D2 (UniProt O95969)
inactive: [2] -0.228 | [20] 0.192 | [3] 0.398 | [4] -0.378 | [5] 0.243 | [6] 0.141 | [7] -0.208 | [8] 0.251 | [9] -0.015 | [10] 0.219 | [11] 0.179 | [12] -0.356 | [14] -0.789 | [15] 0 | [16] 0.074 | [17] -0.052 | [18] 0.011 | [19] 0.051

Later entries:

SALL2 (UniProt Q9Y467)
inactive: [2] 0.015 | [20] 0.059 | [3] 0.024 | [4] -0.123 | [5] 0.049 | [6] -0.08 | [7] 0.294 | [8] -0.1 | [9] -0.066 | [10] 0.09 | [11] -0.098 | [12] 0.048 | [14] 0.006 | [15] 0.276 | [16] -0.159 | [17] -0.058 | [18] -0.078 | [19] -0.194

SENP8 (UniProt Q96LD8)
inactive: [1] 0.099 | [2] 0.022 | [20] 0.087 | [3] 0.118 | [4] -0.04 | [5] 0.071 | [8] 0.056 | [9] 0.071 | [11] 0.118 | [12] 0.044 | [13] -0.021 | [14] 0.043 | [15] 0.044 | [16] -0.167 | [17] 0.031 | [18] 0 | [19] 0.058

SEL1L3 (UniProt Q68CR1)
inactive: [1] 0.025 | [20] -0.05 | [3] 0.066 | [5] -0.002 | [6] 0.003 | [7] -0.022 | [8] 0.043 | [9] -0.026 | [10] -0.017 | [11] 0.051 | [12] -0.234 | [13] 0.028 | [14] -0.063 | [15] -0.088 | [16] -0.061 | [17] 0.093 | [19] -0.218

SBNO2 (UniProt Q9Y2G9)
inactive: [1] -0.126 | [6] -0.02 | [7] -0.088 | [10] 0.047 | [13] -0.078

SECISBP2 (UniProt Q96T21)
inactive: [1] 0.13 | [2] -0.019 | [20] 0.03 | [3] 0.048 | [4] 0.148 | [5] 0.16 | [6] -0.039 | [7] 0.062 | [8] -0.009 | [9] 0.354 | [10] 0.089 | [11] -0.049 | [13] 0.031 | [14] 0.081 | [15] 0 | [16] -0.211 | [17] 0.013 | [18] 0.293 | [19] -0.191

SAMD4A (UniProt Q9UPU9)
inactive: [1] -0.032 | [2] -0.376 | [20] 0.005 | [3] 0.05 | [4] 0.014 | [5] -0.292 | [6] 1.12 | [7] 0.115 | [8] 0.07 | [9] 0.01 | [10] 0.039 | [11] -0.428 | [12] -0.01 | [13] 0.001 | [14] 0.04 | [15] 0.009 | [16] -0.032 | [18] 0.035

SEC11C (UniProt Q9BY50)
inactive: [1] 0.02 | [2] 0.006 | [20] 0.038 | [4] 0.025 | [5] -0.038 | [6] -0.123 | [7] 0.009 | [8] -0.04 | [9] 0.025 | [10] 0.018 | [11] 0.098 | [12] 0.01 | [13] 0.019 | [14] 0.012 | [17] 0.006 | [18] -0.013 | [19] -0.061

SACM1L (UniProt Q9NTJ5)
inactive: [1] -0.008 | [2] -0.004 | [20] 0.028 | [3] -0.022 | [4] -0.031 | [5] -0.017 | [6] -0.036 | [7] -0.143 | [8] 0.007 | [9] -0.017 | [10] 0.015 | [11] -0.109 | [12] 0.026 | [13] -0.01 | [14] -0.012 | [15] 0.041 | [16] -0.177 | [17] 0.025 | [18] -0.166 | [19] 0.011
